Assay results as given in PMC5845016.
No constants are given. Whether binding was seen depends on the method and setting. Binding calls can cover weak binding; strength is not graded here.

Target: T1, NELFE phosphorylated peptide QPFQRSI(p)SADDDLQE (human)
T1 sequence (peptide, phosphoserine at serine 115 (eighth residue of the peptide)): QPFQRSISADDDLQE
Assay: crystal structure; 14-3-3 epsilon and peptide mixed 1:5; 40% pentaerythritol propoxylate, 0.2 M sodium thiocyanate, 0.1 M HEPES pH 7.0; sitting drop, 293 K; molecular replacement with PDB 2BR9; both purified

Substance: 14-3-3 epsilon
- binding: binds
